Experimental data: patent publication US20200405868A1, “GEL-FORMING POLYPEPTIDES” (priority 2018, published 2020)

Test: Release assay with Centricon Centrifugal Filter Units (FITC-labeled molecules with carrier peptide)
[1] = FITC-labeled GnRH, carrier 1mg/10ml, lower chamber
[2] = FITC-labeled GnRH, carrier 1mg/100ml, lower chamber
[3] = FITC-labeled Morpholino, carrier 1mg/10ml, lower chamber
[4] = FITC-labeled Morpholino, carrier 1mg/100ml, lower chamber
[5] = FITC-labeled dUTP, carrier 1mg/10ml, lower chamber
[6] = FITC-labeled dUTP, carrier 1mg/100ml, lower chamber

Row | Substance | Fluorescent Reading (average of duplicates) (FITC-labeled Dexmethasone, carrier 1mg/10ml) | Fluorescent Reading (average of duplicates) (FITC-labeled Naloxone, carrier 1mg/10ml) | Fluorescent Reading (average of duplicates) (FITC-labeled Dexmethasone, carrier 1mg/100ml) | Fluorescent Reading (average of duplicates) [1] | Fluorescent Reading (average of duplicates) [2] | Fluorescent Reading (average of duplicates) [3] | Fluorescent Reading (average of duplicates) [4] | Fluorescent Reading (average of duplicates) (FITC-labeled Naloxone, carrier 1mg/100ml) | Fluorescent Reading (average of duplicates) [5] | Fluorescent Reading (average of duplicates) [6]
1 | Pal-KVQKLSAPVDPSSPHSY-NH2 [SEQ ID NO:109] | 4.29 | 1.38 | – | – | – | – | – | – | – | –
2 | Pal-SSPHSY-NH2 [SEQ ID NO:119] | – | – | 1.60 | 9.00 | 58.37 | 5.56 | 15.83 | 0.60 | 0.14 | 2.67
3 | Pal-VGSNTY-NH2 [SEQ ID NO:133] | – | – | – | 55.43 | 70.95 | 22.31 | 20.25 | – | 9.22 | 6.23
